Source: PMC2593702, “Purification, crystallization and X-ray structures of the two manganese superoxide dismutases from Caenorhabditis elegans” (Acta Crystallographica Section F, 2008)
No constants are given. Whether binding was seen depends on the method and setting. Some results given as binding are weak or reduced against the parent protein; the word gives no strength.

B1: Caenorhabditis elegans manganese superoxide dismutase MnSOD-2 (enzyme)
chain: MKHSLPDLPYDYADLEPVISHEIMQLHHQKHHATYVNNLNQIEEKLHEAVSKGNVKEAIALQPALKFNGGGHINHSIFWTNLAKDGGEPSAELLTAIKSDFGSLDNLQKQLSASTVAVQGSGWGWLGYCPKGKILKVATCANQDPLEATTGLVPLFGIDVWEHAYYLQYKNVRPDYVNAIWKIANWKNVSERFAKAQQ
notes: N-terminal methionine of the expression construct, retained in the purified protein by mass spectrometry; Superoxide dismutase [Mn]; Expressed without a histidine tag; Cloning is as in Hunter et al., 1997
B2: Caenorhabditis elegans manganese superoxide dismutase MnSOD-3 (enzyme)
chain: MKHTLPDLPFDYADLEPVISHEIMQLHHQKHHATYVNNLNQIEEKLHEAVSKGNLKEAIALQPALKFNGGGHINHSIFWTNLAKDGGEPSKELMDTIKRDFGSLDNLQKRLSDITIAVQGSGWGWLGYCKKDKILKIATCANQDPLEGMVPLFGIDVWEHAYYLQYKNVRPDYVHAIWKIANWKNISERFANARQ
notes: as for B1

Legend:
[1] = biological target: Caenorhabditis elegans manganese superoxide dismutase MnSOD-2 (Caenorhabditis elegans) (UniProt P31161); assay: crystal structure; hanging drop, 0.1 M Bicine pH 9.2 with 3.0 M (MnSOD-2) or 2.7 M (MnSOD-3) ammonium sulfate, 291 K; space group P4(1)2(1)2, two subunits per asymmetric unit; data at 100 K (MnSOD-3 also at 293 K); both purified
[2] = biological target: Caenorhabditis elegans manganese superoxide dismutase MnSOD-3 (Caenorhabditis elegans) (UniProt P41977); assay: as above

Row | Binder | binding [1] | binding [2]
1 | B1 | binds | –
2 | B2 | – | binds
